The values below come from PubChem BioAssay AID2685 (National Center for Advancing Translational Sciences (NCATS), 2010).

The test in a line: qHTS Assay for Lipid Storage Modulators in Drosophila S3 Cells.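 As to cell number change: cells counted by Cell Tracker Red CMTPX staining in the red channel.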 The following applies: BODIPY lipid droplet fluorescence, 18-24 h; for cell number change: measured here: cell count max response, cells fed with added oleic acid. The procedure, abridged:
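Drosophila S3 cells got compounds at several concentrations plus oleic acid (400 uM solution). Laser-scanning cytometry with 488 nm excitation read lipid droplets at 500-530 nm and cells at 575-640 nm. Percent activity was relative to 20 uM Triacsin C.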

The mark [1] stands for this setting: measured here: lipid fluorescence (Fed channel) AC50, cells fed with added oleic acid.
Setting [2] is: measured here: cell number channel AC50, cells fed with added oleic acid.

Some of the results follow. Further columns of the screen follow, without active or inactive calls. Compounds called inactive in the main read-out are mostly missing here. Words in brackets tell the shape of the fitted curve; partial curves, single points and poor fits give uncertain potencies.

For `CCCc1nnc(NC(=O)c2cccnc2)s1`, the cell number change came out at 21.4%. Moreover, the AC50 under setting [1] was 1.64 µM [falling, partial curve].

For `CC1(C)CC(=O)c2c(O)cc(OCc3ccc(Br)cc3)cc2O1`, the cell number change worked out at 116%. Also, the AC50 under setting [2] was 6.51 µM [falling, single point]. Under setting [1], the concentration at half-maximal activity (AC50) is 6.51 µM [falling, single point].

As to `CC(C(=O)O)N1c2cccc3cccc(c23)S1(=O)=O` (stereo unspecified), the cell number change came to 4.76%. Further, under setting [1], the AC50 was 20.6 µM [rising, partial curve].

Regarding `Cc1ccc(NC(=O)/C(C#N)=C/c2cccs2)c(C)c1`, the AC50 is, setting by setting: under setting [2], 0.92 µM [rising, partial curve]; under setting [1], 0.92 µM [rising, partial curve].

On to `COC(=O)c1c(S(N)(=O)=O)c2ccccc2n1C`, for which the cell number change was found to be 4.56%. For the same compound, under setting [1], the AC50 is 3.26 µM [falling, single point].

For the compound `Cc1cccc(NC(=S)N(Cc2cccc(Br)c2)CC2CCC(C(=O)O)CC2)c1` (stereo unspecified), the cell number change amounted to 1.96%.

Consider `O=C(Nc1ccc(N2CCOCC2)cc1)c1ccc(COc2ccccc2)cc1`, for which the cell number change is 1.61%. Under setting [1], the concentration at half-maximal activity (AC50) was 23.1 µM [falling, single point].

As to `COC(=O)c1c(NC(=O)c2cccnc2)sc(C)c1C`, the cell number change was determined as 15.1%. Besides, under setting [1], the AC50 was 6.51 µM [falling, single point].

On to `CC(C)Oc1ccc(CNC(=O)CCC(=O)N2CC(C)Sc3ccccc32)cc1` (stereo unspecified), for which the cell number change was 9.22%. The AC50 under setting [1] is 5.17 µM [falling, single point].

For `CCOC(=O)C1CCN(C(=O)c2ccc(SC)cc2OC)CC1`, the cell number change stood at 13.6%.

For the compound `Cc1cc2ncn(N)c2cc1C`, the cell number change is -3.87%. Further, the AC50 under setting [1] is 5.17 µM [rising, single point].

Regarding `FC(F)(F)c1nnc(-c2ccccc2)nc1Sc1ccccc1`, the cell number change is -10.6%.

Consider `CCCCOc1ccc(C(=O)NNC(=S)NC(=O)CC)cc1`, for which the cell number change was -21.4%. Besides, the AC50 under setting [1] was 29.1 µM [falling, single point].

For the compound `Cn1c(=NC(=O)CSCC(=O)N2CCCC2)sc2ccccc21`, the AC50 under setting [2] was 0.517 µM [rising, full curve, poor fit].

For `CN(C1CCCC1)C1CCN(C(=S)Nc2cc(F)cc(F)c2)CC1`, the cell number change stood at 32.7%. Under setting [2], the AC50 was 32.6 µM [rising, single point]. Besides, the AC50 under setting [1] is 29.1 µM [rising, single point].

For `CCCc1nc2ccc(NC(=O)c3ccco3)cc2c(=O)n1Cc1ccccc1Cl`, the cell number change was -29.2%. Besides, the AC50 under setting [1] is 16.4 µM [falling, single point].

Regarding `Cc1ccc(/C=N/NC(=O)c2csc(C)c2)o1`, the cell number change amounted to 8.71%. In addition, the AC50 under setting [1] is 7.31 µM [rising, single point].

In the case of `CCCC[C@]12Cc3cc(OC)c(OC)cc3C(O1)C1=C(O2)C(=O)c2ccccc2C1=O`, the cell number change is -10.8%.

For `CCOc1ccc(C(=O)CCC(=O)NNC(=O)c2ccccc2O)cc1`, the cell number change was -11.8%. The AC50 under setting [1] is 2.31 µM [rising, single point].

On to `CNc1ccc(SC#N)cc1`, for which the cell number change came out at 20.7%. In addition, the AC50 under setting [1] was 0.251 µM [rising, partial curve].

Consider `COC(=O)c1cc(Br)c(=O)n(-c2cc(C)on2)c1`, for which the cell number change worked out at 5.26%.

For `COCCNC(=S)N/N=C(\C)c1cc2ccccc2o1`, the cell number change came to 20.8%. Also, the AC50 under setting [1] was 29.1 µM [rising, single point].

Regarding `COCCN(C(=S)Nc1c(C)cccc1C)C(C)c1cccs1` (stereo unspecified), under setting [1], the AC50 was 6.51 µM [falling, single point].

Take `Cc1ccc(NC(=O)CN2C(=O)N/C(=C\c3cccn3-c3cccc(C(=O)O)c3)C2=O)cc1`: the cell number change is -16.7%.

Consider `CN(CC(=O)NCCCN1CCOCC1)S(=O)(=O)c1cc(Cl)ccc1Cl`, for which the cell number change was -11.3%.

`Cc1ccc(-c2ccnc3c(Br)c(C)nn23)cc1`: the cell number change was -30.7%. Moreover, the half-maximal activity concentration (AC50) under setting [2] was 32.6 µM [falling, single point]. Under setting [1], the AC50 is 32.6 µM [falling, single point].

With `COc1nc(Nc2ccc3c(c2)OCO3)nc(OC)n1`, the cell number change amounted to 2.03%. Moreover, the AC50 under setting [1] is 6.51 µM [rising, single point].

For the compound `O=C(N/N=C/c1ccsc1)c1cc(-c2ccncc2)nc2ccccc12`, the cell number change is 20.6%.

Take `CCN(CC)C(=O)CSc1ccc(C(F)(F)F)cc1[N+](=O)[O-]`: the cell number change is -57.1%. Also, the AC50 under setting [2] is 20.6 µM [falling, single point].

In the case of `O=C1C2C(c3ccccc3)C=CC(c3ccccc3)C2C(=O)N1C1CCCCC1` (stereo unspecified), the cell number change was determined as 38%. Moreover, the AC50 under setting [2] was 1.46 µM [rising, full curve, poor fit].

As for `Cc1ccc(-n2c(CSc3nc(C)cc(C)n3)nnc2SCC(=O)NCc2ccco2)cc1`, the cell number change is -22.5%. Further, under setting [1], the AC50 is 16.4 µM [falling, partial curve, poor fit].

Turning to `Cc1ccccc1NC(=O)CSc1nc2ccccc2c(=O)n1CC1CCCO1` (stereo unspecified), under setting [1], the AC50 was 29.1 µM [rising, single point].

Regarding `COc1ccc(-c2nc(C#N)c(N3CCCCC3)o2)cc1`, the cell number change is 20.4%. The AC50 under setting [1] is 9.2 µM [rising, partial curve, poor fit].

Turning to `Cc1ccc(C)c(C(=O)CSc2n[nH]c(-c3ccncc3)n2)c1`, the cell number change was -11.4%. Also, the AC50 under setting [1] was 2.91 µM [falling, single point].

Regarding `CC(=O)N1CCc2cc(S(=O)(=O)Nc3cccc(C(F)(F)F)c3)ccc21`, the cell number change came to 4.9%. The AC50 under setting [2] is 6.51 µM [rising, single point].

For the compound `COc1ccc(-n2c(=O)c3ccccc3n(CC(=O)Nc3cc(C)on3)c2=O)cc1OC`, the cell number change was -10.7%. Also, the AC50 under setting [1] is 1.84 µM [rising, partial curve].

For `CCn1cc([N+](=O)[O-])c(C(=O)Nc2ccc(Br)cn2)n1`, the cell number change stood at 6.26%. Further, the AC50 under setting [1] was 0.731 µM [rising, full curve, poor fit].

Consider `CCOc1ccc(S(=O)(=O)NC2CCCC2)cc1C`, for which the cell number change was -19.3%.

Regarding `CCOC(=O)c1sc(NC(=O)C2CC(=O)N(c3ccc4c(c3)OCCO4)C2)nc1C` (stereo unspecified), the cell number change was found to be 22.3%.

Regarding `Cc1cc(C)n(-c2nc(N(C)C)nc(N3CCOCC3)n2)n1`, the cell number change amounted to 58.9%. Under setting [2], the AC50 was 7.31 µM [rising, partial curve].

For the compound `COc1ccc(NC(=O)CCN2CCC(C)CC2)cc1`, the cell number change is -51.7%. Further, the AC50 under setting [2] is 0.731 µM [falling, full curve]. The AC50 under setting [1] is 29.1 µM [falling, single point].

As for `O=C(C1CCN(S(=O)(=O)c2ccc3c(c2)OCCO3)CC1)N1CCc2ccccc21`, the cell number change came to 36.5%. Moreover, the AC50 under setting [2] was 0.231 µM [rising, partial curve].

Consider `O=S(=O)(c1ccc(Br)s1)N1CCNCC1`, for which the cell number change was found to be 16.5%. Under setting [1], the AC50 was 2.91 µM [rising, full curve, poor fit].

As to `Cc1csc(CNC(=O)c2cc(COc3c(C)cccc3C)on2)n1`, the cell number change is -27.2%. In addition, the AC50 under setting [1] is 0.58 µM [falling, single point].

On to `N#Cc1c(-c2cccs2)cc(-c2cccnc2)nc1N`, for which the AC50 under setting [1] was 29.1 µM [falling, single point].

With `COc1cccc(CN2CCN(C(=O)C3CCC(=O)N(C4CCCC4)C3)CC2)c1` (stereo unspecified), the cell number change was determined as 17.9%. Moreover, under setting [2], the AC50 was 6.51 µM [rising, single point].

For `COc1ccccc1OCCCOc1ccc(/C=C2\SC(=O)NC2=O)cc1OC`, the cell number change was -35.4%.

Regarding `c1csc(Cc2nn3c(-c4ccncc4)nnc3s2)c1`, the cell number change is -14.4%. The AC50 under setting [1] was 0.82 µM [rising, full curve].

As for `COc1cccc(C(=O)Nc2ccccc2C(=O)NCC2CCCO2)c1` (stereo unspecified), the cell number change was -9.39%. In addition, the AC50 under setting [1] is 29.1 µM [falling, partial curve, poor fit].

Consider `Cc1ccc(CN2C(=O)NC(Cc3c[nH]c4ccccc34)C2=O)cc1` (stereo unspecified), for which the cell number change is 15.4%. Under setting [1], the AC50 is 0.00517 µM [rising, full curve, poor fit].

Consider `C/C(CC(=O)Nc1ccc2c(c1)OCCO2)=N\NC(=O)COc1ccccc1C`, for which the AC50 under setting [1] was 29.1 µM [rising, partial curve].

As to `COCC(=O)Nc1cc(OC)ccc1OC`, the cell number change was -2.77%. The AC50 under setting [1] was 2.59 µM [falling, single point].

As to `O=C(c1ccco1)N1CCN(C(=S)NC2CC3CCC2C3)CC1` (stereo unspecified), the cell number change was -18.4%. In addition, under setting [1], the AC50 is 29.1 µM [falling, partial curve, poor fit].

In the case of `COCCCNC(=S)N/N=C/c1ccc(O)cc1`, the cell number change stood at 23.6%. For the same compound, the half-maximal activity concentration (AC50) under setting [1] was 0.517 µM [falling, single point].

Turning to `CCOc1ccccc1NC(=O)COC(=O)C1CC1`, the cell number change is -29.1%. Also, the AC50 under setting [1] is 7.31 µM [falling, partial curve].

Consider `Cc1ccc(S(=O)(=O)N2CCCCC2)cc1NC(=O)Cn1ccsc1=N`, for which the cell number change is -11.4%. Besides, under setting [2], the AC50 is 4.11 µM [falling, single point]. For the same compound, the AC50 under setting [1] was 23.1 µM [falling, partial curve].

On to `CN(CC(=O)NCc1ccncc1)S(=O)(=O)c1ccc(Cl)cc1`, for which the cell number change is -37.8%.

As to `CC(=O)Nc1ccc(S(=O)(=O)N(CCO)Cc2ccccc2)cc1`, the cell number change came to 60.9%. Under setting [2], the AC50 is 18.4 µM [rising, single point]. The AC50 under setting [1] is 6.51 µM [rising, single point].

As for `COc1ccc(C)cc1S(=O)(=O)N(C)CC(=O)N1CCCCCC1`, the cell number change is 8.43%. Moreover, under setting [1], the half-maximal activity concentration (AC50) is 13 µM [rising, partial curve, poor fit].

With `Nn1c(SCC(=O)NCc2ccccc2)nnc1C1CC1`, the cell number change amounted to 3.53%. Further, under setting [1], the AC50 is 0.651 µM [rising, full curve].

`O=C(Nc1ccccc1)Nc1cccc(Cl)c1`: the cell number change is -93.2%. For the same compound, the AC50 under setting [2] was 29.1 µM [falling, single point].

Take `CCN(CC)C(=O)c1c(-c2ccccc2)oc2ccc(OC)cc12`: the cell number change is 34.4%. Under setting [2], the AC50 was 13 µM [rising, partial curve, poor fit]. The AC50 under setting [1] was 20.6 µM [rising, partial curve].

`CCSc1nnc(NC(=O)COc2ccc(Cl)cc2)s1`: the cell number change was -50.5%. Besides, the half-maximal activity concentration (AC50) under setting [2] is 32.6 µM [falling, single point].

Regarding `Cc1ccc(C(=O)NCC(=O)Nc2ccc3c(c2)CCC3)cc1C`, the cell number change is -15.9%. The AC50 under setting [1] is 29.1 µM [falling, single point].

In the case of `CN(NS(=O)(=O)c1ccc(Br)cc1)c1nc(C(F)(F)F)nc2ccccc12`, the cell number change was found to be 8.01%.

With `CC1(C)Cc2c(C#N)c(N)n(-c3ccccc3)c(=O)c2CO1`, the cell number change turned out to be 4.19%. Besides, under setting [1], the AC50 was 0.0058 µM [rising, full curve, poor fit].
